Data on two compounds can be found in PMC9851200, “Multiparameter phenotypic screening for endogenous TFEB and TFE3 translocation identifies novel chemical series modulating lysosome function” (Autophagy, 2022).

Data set [1] concerns SH-SY5Y cells. The note with it: human.
In a further data set the test system is endogenous TFEB. Briefly: TFEB nuclear translocation, immunocytochemistry high-content imaging. In kind it is cell-based.
In the next data set the test system is endogenous TFE3. Kind of data set: TFE3 nuclear translocation, immunocytochemistry high-content imaging. In kind it is cell-based.
Data set [2] has as its system SH-SY5Y cells.
For data set [3], the system named is SH-SY5Y cells. The note with it: human. This is another data set of the same source.
Throughout, for AK: reference of the scale not given here.
Throughout, for DQ Intensity: reference of the scale not given here.
Throughout, for DQ Spot: reference of the scale not given here.
Throughout, for Nuclear Count: reference of the scale not given here.

In the data set with SH-SY5Y cells [1], `COc1cc2ncnc(Nc3cccc(Br)c3)c2cc1OC.Cl` [UNC10225449A] showed an AK of 89.71.

In the case of `Cc1cccc(Cn2ccn3c(=O)cc(N4CCOCC4)nc23)c1` [UNC10225202A], the TFEB % in the data set with endogenous TFEB was 3.23%. The TFE3 % with endogenous TFE3 is on record as 8.06%. Besides, in the data set with SH-SY5Y cells [2], the “DQ Intensity” value was determined as 101.87 and the “DQ Spot” value is reported as 127.35. In addition, the AK in the data set on SH-SY5Y cells [1] is 84.68. Moreover, the “Nuclear Count” value in the data set on SH-SY5Y cells [3] turned out to be 108.76.
